Each structure is given as a SMILES string. The list shows only some results of the screen, not a fair sample: it gathers tests that were run many times, whatever their T/C, doses with no T/C, and many T/C values between a quarter and a half above the control. Further doses and runs are listed elsewhere. T/C gives the treated animals as a percentage of the vehicle group. Some doses have a count of surviving animals in place of a T/C: the source holds a T/C of zero for them, seemingly a mark for toxic or unscored doses. Some survivor counts are full or nearly so, which does not show that the dose was tolerated: survival well below the control is almost never listed, so the zero probably covers shortened survival too. Counts of survivors are from the toxicity check (mostly the fifth day) where no day follows; animals may have died later. Schedules are NCI's codes, read here as Q, the interval in days (D) or hours (H), X, the number of doses. Some entries hold several experiments; the values are given in rising order. Where survival is the endpoint, this PubChem deposit counts one and a half times the control or more as active, and values a quarter to a half above the control carry no call in these data; other NCI protocols may use other cut-offs. Some T/C values carry the count of animals alive at the toxicity check (mostly the fifth day); where none is given, no animal had died by that day.

The test concerns BDF1 mice, P388 leukemia ip, median survival T/C. Nature of the test: NCI In Vivo Anticancer Drug Screen. Data for tumor model P388 Leukemia (intraperitoneal) in B6D2F1 (BDF1) mice. The following applies: higher T/C = longer survival. The method, boiled down:
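Vehicle-dosed animals serve as the reference; survival of compound-dosed, tumour-implanted mice is divided by it.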

Setting [1] is: T/C endpoint: median survival time, dose: 100.0 mg/kg/injection, schedule: Q04DX003 (ip), vehicle: saline.
Where [2] appears, read: T/C endpoint: median survival time, dose: 200.0 mg/kg/injection, schedule: Q04DX003 (ip), vehicle: saline.
Where [3] appears, read: T/C endpoint: median survival time, dose: 400.0 mg/kg/injection, schedule: Q04DX003 (ip), vehicle: saline.
The mark [4] stands for this setting: T/C endpoint: median survival time, dose: 400.0 mg/kg/injection, schedule: Q01DX009 (ip), vehicle: saline with Tween-80.
[5] abbreviates: T/C endpoint: median survival time, dose: 200.0 mg/kg/injection, schedule: Q04DX003 (ip), vehicle: Klucel (hydroxypropylcellulose) (HPC).
Setting [6] is: T/C endpoint: median survival time, dose: 25.0 mg/kg/injection, schedule: Q01DX009 (ip), vehicle: saline with Tween-80.
[7] abbreviates: T/C endpoint: median survival time, dose: 50.0 mg/kg/injection, schedule: Q01DX009 (ip), vehicle: saline with Tween-80.
The mark [8] stands for this setting: T/C endpoint: median survival time, dose: 100.0 mg/kg/injection, schedule: Q01DX009 (ip), vehicle: saline with Tween-80.
The mark [9] stands for this setting: T/C endpoint: median survival time, dose: 200.0 mg/kg/injection, schedule: Q01DX009 (ip), vehicle: Klucel (hydroxypropylcellulose) (HPC).
Where [10] appears, read: T/C endpoint: median survival time, dose: 400.0 mg/kg/injection, schedule: Q04DX003 (ip), vehicle: Klucel (hydroxypropylcellulose) (HPC).
The mark [11] stands for this setting: T/C endpoint: median survival time, dose: 200.0 mg/kg/injection, schedule: Q01DX009 (ip), vehicle: saline with Tween-80.
[12] abbreviates: T/C endpoint: median survival time, dose: 400.0 mg/kg/injection, schedule: Q04DX002 (ip), vehicle: saline with Tween-80.

With `C=CC[Se]c1ncnc2c1c(C#N)cn2C1OC(CO)C(O)C1O` (centres undefined), the survivor count under setting [1] is 5 of 6, the survivor count under setting [2] is listed as 3 of 6 and the survivor count under setting [3] was 1 of 6.
Consider `CCOC(=O)C(Cc1ccccc1)P(=O)(OCC)OCC` (centres undefined), for which, under setting [4], the survivor count is 2 of 6.
For the molecule `O=C1C(Br)=CC(=C2C=C(Br)C(=O)C(Br)=C2)C=C1Br`, under setting [5], the survivor count is listed as 3 of 6.
For the molecule `O=C(Nc1ccccc1O)/C(Cl)=C/Cl`, the survivor count is 6 of 6 under setting [6], 6 of 6 under setting [7] and 5 of 6 under setting [8]. The T/C is, setting by setting: under setting [7], 132 % of control; (T/C endpoint: median survival time, dose: 75.0 mg/kg/injection, schedule: Q01DX009 (ip), vehicle: saline with Tween-80) 133 % of control.
Regarding `C(=N\C(/N=C/c1ccccc1)c1ccccc1)/c1ccccc1`, under setting [9], the survivor count is recorded as 6 of 6.
Take `CNC(C)(C)C(SSSC(c1ccc(Cl)cc1)C(C)(C)NC)c1ccc(Cl)cc1` (centres undefined): the survivor count is, setting by setting: (T/C endpoint: mean survival time, dose: 50.0 mg/kg/injection, schedule: Q01DX009 (ip), vehicle: saline with Tween-80) 5 of 6; (T/C endpoint: median survival time, dose: 12.5 mg/kg/injection, schedule: Q01DX009 (ip), vehicle: saline with Tween-80) 3 of 6; under setting [8], 0 of 6; (T/C endpoint: median survival time, dose: 100.0 mg/kg/injection, schedule: Q04DX003 (ip), vehicle: saline with Tween-80) 6 of 6.
Turning to `Cc1ccc(S(=O)(=O)OCC(CO)(COS(=O)(=O)c2ccc(C)cc2)[N+](=O)[O-])cc1`, the survivor count (T/C endpoint: median survival time, dose: 400.0 mg/kg/injection, schedule: Q01DX009 (ip), vehicle: Klucel (hydroxypropylcellulose) (HPC)) is 3 of 6.
With `Cc1ccc2c(c1)CC(C)([CH2][Hg][Cl])O2` (centres undefined), the survivor count (T/C endpoint: median survival time, dose: 24.0 mg/kg/injection, schedule: Q04DX003 (ip), vehicle: Klucel (hydroxypropylcellulose) (HPC)) is 0 of 6.
Consider `CCOC(=O)N1c2ccccc2C=CC1/C(N)=N/O` (centres undefined), for which, under setting [5], the survivor count was 6 of 6.
Regarding `C/C=C(\C)C(=O)OCC1CC[N+](C)([O-])C1` (centres undefined), the survivor count (T/C endpoint: median survival time, dose: 800.0 mg/kg/injection, schedule: Q01DX009 (ip), vehicle: water) was 2 of 4.
On to `CC1=C(C#N)C(C)(C)C(C#N)=C(C)N1C`, for which the survivor count (T/C endpoint: median survival time, dose: 200.0 mg/kg/injection, schedule: Q01DX009 (ip), vehicle: distilled water + Tween-80) is reported as 2 of 6.
For `CNc1ccc(/C=C2\C=Cc3ccccc32)cc1`, the survivor count is 6 of 6 (T/C endpoint: median survival time, dose: 50.0 mg/kg/injection, schedule: Q01DX009 (ip), vehicle: Klucel (hydroxypropylcellulose) (HPC)); 6 of 6 (T/C endpoint: median survival time, dose: 100.0 mg/kg/injection, schedule: Q01DX009 (ip), vehicle: Klucel (hydroxypropylcellulose) (HPC)); 5 of 6 (T/C endpoint: median survival time, dose: 100.0 mg/kg/injection, schedule: Q04DX003 (ip), vehicle: Klucel (hydroxypropylcellulose) (HPC)); 3 of 6 under setting [9]; 1 of 6 and 4 of 6 under setting [5]; 0 of 6 and 1 of 6 under setting [10].
As to `Cc1cc(OCc2nc(N)nc(N)c2-c2ccc(Cl)c(Cl)c2)ccc1NS(=O)(=O)c1cccc(S(=O)(=O)F)c1`, the T/C under setting [5] was 140 % of control; the T/C (T/C endpoint: median survival time, dose: 264.0 mg/kg/injection, schedule: Q04DX003 (ip), vehicle: saline) is 145 % of control; the T/C under setting [10] was 145 % of control; the T/C under setting [3] is 136 % of control.
On to `COc1cc(OC)c(/C=C/c2c3ccccc3cc[n+]2C)c(OC)c1`, for which the survivor count under setting [8] is given as 0 of 6, the survivor count under setting [11] is given as 0 of 6 and the survivor count under setting [4] is given as 0 of 6.
With `Cc1ccc(C[N+](C)(C)C)c2ccccc12`, the survivor count reads like this: under setting [1], 1 of 6; under setting [2], 2 of 6; under setting [3], 0 of 6.
Regarding `COC(=O)c1[nH]cnc1/N=N\N(CCF)CCF`, the T/C is 127 % of control (T/C endpoint: median survival time, dose: 13.0 mg/kg/injection, schedule: Q04DX003 (ip), vehicle: saline with Tween-80); 131 % of control (T/C endpoint: median survival time, dose: 20.0 mg/kg/injection, schedule: Q04DX003 (ip), vehicle: saline with Tween-80); 140 % of control (T/C endpoint: median survival time, dose: 30.0 mg/kg/injection, schedule: Q04DX003 (ip), vehicle: saline with Tween-80); 145 % of control (T/C endpoint: median survival time, dose: 44.0 mg/kg/injection, schedule: Q04DX003 (ip), vehicle: saline with Tween-80). Further, the survivor count under setting [6] was 3 of 6; the survivor count under setting [7] is listed as 4 of 6; the survivor count under setting [8] is listed as 4 of 6; the survivor count (T/C endpoint: median survival time, dose: 150.0 mg/kg/injection, schedule: Q04DX003 (ip), vehicle: saline with Tween-80) was 5 of 6.
As for `CCSC(C(OC(C)=O)C(OC(C)=O)C(OC(C)=O)C(COC(C)=O)OC(C)=O)n1cnc2c(=S)nc[nH]c21` (centres undefined), for the setting “T/C endpoint: median survival time, dose: 50.0 mg/kg/injection, schedule: Q01DX005 (ip), vehicle: saline with Tween-80”, the survivor count was 6 of 6.
`O=C1CN(C(=O)CN2C(=O)c3ccccc3C2=O)C2(CCCCC2)O1`: where the note is “T/C endpoint: median survival time, dose: 200.0 mg/kg/injection, schedule: Q04DX003 (ip), vehicle: saline with Tween-80”, the survivor count is on record as 6 of 6.
In the case of `COC(=O)/C=C/c1c[nH]c2nccnc12`, the T/C (T/C endpoint: median survival time, dose: 200.0 mg/kg/injection, schedule: Q01DX009 (ip), vehicle: water) is 128 % of control.
As to `c1ccc2c[n+](CCCCCCCCCC[n+]3ccc4ccccc4c3)ccc2c1`, the T/C is 127 % of control (T/C endpoint: median survival time, dose: 4.0 mg/kg/injection, schedule: Q01DX009 (ip), vehicle: saline) and 130 % of control (T/C endpoint: median survival time, dose: 6.0 mg/kg/injection, schedule: Q01DX009 (ip), vehicle: saline). Further, the survivor count (T/C endpoint: median survival time, dose: 20.0 mg/kg/injection, schedule: Q01DX009 (ip), vehicle: saline) was 4 of 6 and 6 of 6.
In the case of `Oc1ccc(Cl)cc1Sc1cc(Cl)ccc1O`, the survivor count by setting is: (T/C endpoint: median survival time, dose: 100.0 mg/kg/injection, schedule: Q01DX001 (ip), vehicle: saline with Tween-80) 3 of 6; (T/C endpoint: median survival time, dose: 200.0 mg/kg/injection, schedule: Q01DX001 (ip), vehicle: saline with Tween-80) 0 of 6; (T/C endpoint: median survival time, dose: 400.0 mg/kg/injection, schedule: Q01DX001 (ip), vehicle: saline with Tween-80) 0 of 6.
On to `Cc1cc(O)c(C(c2ccccc2)c2c(O)cc(C)[nH]c2=O)c(=O)[nH]1`, for which the survivor count under setting [11] was 6 of 6.
For `CC1CNCC(C)N1C(=O)c1ccccc1` (centres undefined), the T/C (T/C endpoint: median survival time, dose: 0.8 mg/kg/injection, schedule: Q01DX009 (ip), vehicle: water) is 125 % of control.
With `CCOC(=O)Sc1ncnc2nc[nH]c12`, the T/C under setting [7] was 136 % of control [5 of 6 alive].
As to `CC1CN(Cc2ccccc2)CC(C)N1` (centres undefined), the survivor count (T/C endpoint: median survival time, dose: 400.0 mg/kg/injection, schedule: Q04DX003 (ip), vehicle: water) was 0 of 6.
Consider `C=CCCN1CCCC1`, for which, under setting [7], the survivor count is given as 1 of 6.
Regarding `CC(=O)OC(C(=O)N(c1ccccc1)c1ccccc1)c1ccccc1` (centres undefined), the survivor count under setting [11] is on record as 5 of 6.
Turning to `O=S(=O)(O)C1CCCCC1O` (centres undefined), the survivor count under setting [12] is recorded as 1 of 6.
With `COc1ccc2nc(C)c(COC(C)=O)c(Cl)c2c1`, the survivor count (T/C endpoint: median survival time, dose: 100.0 mg/kg/injection, schedule: Q01DX009 (ip), vehicle: saline) is 6 of 6.
With `CCCC1([N+](C)(C)C)CSC1CC` (centres undefined), the survivor count by setting is: (T/C endpoint: median survival time, dose: 100.0 mg/kg/injection, schedule: Q04DX002 (ip), vehicle: saline with Tween-80) 4 of 6; (T/C endpoint: median survival time, dose: 200.0 mg/kg/injection, schedule: Q04DX002 (ip), vehicle: saline with Tween-80) 0 of 6; under setting [12], 0 of 6.

Values taken from PubChem BioAssay AID328 (DTP/NCI, 2004).
